Some results were stated once for a whole list of compounds, not compound by compound. The name of at least one read-out is uncertain.
Experiment: Bioavailability of acamprosate following administration of acamprosate prodrugs to rats
Type: in vivo
Conditions: 70 mg-equivalents acamprosate per kg in 3.4% Phosal, adult male Sprague-Dawley rats; for acamprosate oral bioavailability relative to the acamprosate oral bioavailability of an equivalent dose of acamprosate itself: oral administration

CC(=O)NCCCS(=O)(=O)OCC(C)(C)C(=O)OCc1ccccc1 [Compound 11, Phenylmethyl 3-{[3-(acetylamino)propyl]sulfonyloxy}-2,2-dimethylpropanoate]
acamprosate oral bioavailability relative to the acamprosate oral bioavailability of an equivalent dose of acamprosate itself: at least 5 times

CCOC(=O)C(C)(C)COS(=O)(=O)CCCNC(C)=O [Compound 9, Ethyl 3-{[3-(acetylamino)propyl]sulfonyloxy}-2,2-dimethylpropanoate]
acamprosate colonic bioavailability relative to the acamprosate colonic bioavailability of an equivalent dose of acamprosate itself (colonic administration): at least 5 times | acamprosate oral bioavailability relative to the acamprosate oral bioavailability of an equivalent dose of acamprosate itself: at least 5 times
